Out of some 360,000 compounds screened, about 780 (0.22%) were called active. Inconclusive results, whose numbers are uncertain, are shown with a selection of clear calls. Cut-off read from the data, not from the text of the source: active = inhibition above about 35% (passing the limit was not always enough); inconclusive = no clear call, values can overlap the other calls.
test system: Botulinum neurotoxin type F light chain protease (Clostridium botulinum); experiment: BoNT/F light chain protease inhibitors, primary screen, biochemical, flow cytometry, MLPCN library (AID 588497); details: Multiplex microsphere protease cleavage assay, at 10 µM, hits give high values; note: plate controls were buffer without enzyme for full effect and enzyme alone for no effect

Row | SMILES | inhibition
1 | Cc1ccc(C)c(/C(O)=C2/C(=O)C(=O)N(CCN3CCOCC3)C2c2ccc(C)o2)c1 (stereo not given) | inconclusive: 15.2%
2 | COc1ccc(O)c(CN2CC3CCC(CC3)C2)c1 | inactive: 5.3%
3 | CCOc1cccc(C=NCCc2ccc(OC)c(OC)c2)c1O | inconclusive: -31.1%
4 | CCc1nnc(NC(=O)CN2CCN(CC)CC2)s1 | inconclusive: 6.5%
5 | Nc1ccccc1C(=O)NNC(=O)C(=O)/C=C(\O)c1ccccc1 | inconclusive: 35.4%
6 | COc1cc(C(=O)NNC(=O)C2CCCC2)cc(OC)c1OC | inactive: -2.7%
7 | Nc1cc(OC(=O)c2ccco2)nn1S(=O)(=O)c1ccc(F)cc1 | inactive: 9.2%
8 | CN(C)C(=O)Cn1c(=O)n(S(=O)(=O)c2ccccc2)c2ccccc21 | inconclusive: 36.3%
9 | Cc1cccc(C(=O)Nc2sc3c(c2C(=O)O)CCCC3)c1 | inconclusive: 12.7%
10 | CCC(CC)c1nn2c(N)c(/C=C3\C(C)=Nc4ccccc43)c(=O)nc2s1 | inconclusive: 12.3%
11 | CN(C)c1nc(-c2ccccc2)cc(C(F)(F)F)c1C#N | inactive: 1.9%
12 | O=C1CCCC(O)=C1Sc1cc(Cl)c(Cl)cc1Cl | inconclusive: 40.3%
13 | CCCCOc1ccc(/C=N/NC(=S)Nc2cccc(C)c2C)cc1 | inactive: -9.4%
14 | C/C(=N\OCC(=O)O)c1ccc(Cl)cc1 | inconclusive: -98.9%
15 | Cc1ccc(S(=O)(=O)N2C[C@H]3N(C(=O)OC(C)C)N(C(=O)OC(C)C)C[C@H](OC(=O)NCc4ccco4)[C@@]3(O)C2)cc1 | inactive: -0.9%
16 | O=C(NNS(=O)(=O)c1ccc(F)cc1)c1cccc(O)c1 | inconclusive: -25.5%
17 | C1=C\CCC2(OCCO2)C2(CC/1)OCCO2 | inactive: -1.4%
18 | O=[N+]([O-])c1ccc(C2=NN(CCO)C(=Nc3ccc(OC(F)(F)F)cc3)SC2)cc1 | inconclusive: -5.6%
19 | C/C(=N\NC(=O)Cc1ccc(Cl)cc1)c1ccc(F)cc1 | active: 35.2%
20 | CC(C)n1cc(/C=C/c2cc[n+](C)cc2)c2ccccc21 | inconclusive: 37.3%

Quoted at random: 3 entries already listed, in no set order.
Row | SMILES | inhibition
17 | C1=C\CCC2(OCCO2)C2(CC/1)OCCO2 | inactive: -1.4%
4 | CCc1nnc(NC(=O)CN2CCN(CC)CC2)s1 | inconclusive: 6.5%
14 | C/C(=N\OCC(=O)O)c1ccc(Cl)cc1 | inconclusive: -98.9%

(more compounds)

Row | SMILES | inhibition
21 | COc1cc(NC(=O)Cc2ccccc2)ccc1NC(=O)Cc1ccccc1 | inconclusive: 21.7%
22 | Cc1ccc(OCCCC(=O)N(C)CC(=O)Nc2ccccc2Br)cc1 | inconclusive: -8.9%
23 | COc1cccc(Nc2c(F)c(OC)c(F)c(F)c2C(=O)O)c1 | inconclusive: -43%
24 | O=C(CCc1nnc2ccc(N3CCC4(CC3)OCCO4)nn12)N1CCCCC1 | inactive: -0.5%
25 | NS(=O)(=O)c1ccc(CNS(=O)(=O)Cc2ccc(Cl)cc2)cc1 | inconclusive: -14.1%
26 | COC(=O)C1=C(C(=O)OC)C2C=CC1C1C(OC(C)=O)C(OC(C)=O)C21 (stereo not given) | inactive: -5.5%
27 | Nc1cc(S(=O)(=O)N2CCCCC2)ccc1N1CCCCC1 | inconclusive: 2.1%
28 | N#C/C(=C\c1ccc[nH]1)C(=O)NCC1CCCO1 (stereo not given) | inactive: -8.7%
29 | CCN(CC)c1ccc(/C=N/Nc2nn[nH]n2)cc1 | inconclusive: -16.5%
30 | CCN(CC)CCCNC(=O)C1CCC(CNS(=O)(=O)c2ccc(Cl)cc2)CC1 (stereo not given) | inconclusive: 8.1%
31 | Cc1ccc(NC(=O)Cn2cccc2)cc1 | inactive: -3.2%
32 | Cn1c(=O)c2c(nc(CN3CCN(c4ccc(F)cc4)CC3)n2Cc2ccccc2F)n(C)c1=O | inconclusive: -18.2%
33 | COc1ccc(NC(=O)CC2C(=O)N(C)C(=S)N2Cc2ccc3c(c2)OCO3)cc1 (stereo not given) | inactive: -1.1%
34 | COc1ccccc1NC(=S)N1CCN(c2ccccc2F)CC1 | inconclusive: 48%
35 | COc1ccc(Br)cc1C(=O)Nc1ccc(O)cc1 | inactive: -11.6%
36 | COc1cccc(S(=O)(=O)Nc2ccc(C(=O)NCc3ccco3)cc2)c1 | inactive: 1.3%
37 | CC1=C(C(=O)OCc2ccccc2)C(c2cccc(Br)c2)NC(=O)N1 (stereo not given) | inconclusive: -23.9%
38 | CC1(C)OC(=O)C(=CNc2ccccn2)C(=O)O1 | inconclusive: 36.6%
39 | COc1ccc(CCNS(=O)(=O)c2ccc(OC)c(OC)c2)cc1OC | inconclusive: -14.3%
40 | CC(C)(C)n1cnc2cc(NC(=O)c3ccccc3)ccc21 | inconclusive: 6%

Row | SMILES | inhibition
41 | Cc1ccccc1C(=O)N1CCc2c([nH]c3ccccc23)C1C(F)(F)F (stereo not given) | inconclusive: 42.9%
42 | COc1ccc(CN2C(=O)COc3ccccc32)cc1 | inconclusive: 4.3%
43 | COC(=O)c1c(C)oc(C)c1S(=O)(=O)NCc1cccs1 | inconclusive: -48.6%
44 | Cc1cccc(NC(=O)CNC(=O)COC(=O)c2ccc(C(C)(C)C)cc2)c1C | inactive: -0.9%
45 | O=C(CN1CCCC1)Nc1c2c(nc3ccccc13)N(Cc1ccccc1)CC2 | inactive: -0.6%
46 | COc1cccc(NC(=O)C2CCCO2)c1 (stereo not given) | inconclusive: -29.1%
47 | O=C(c1ccco1)N1CCN(Cc2csc(-c3ccccc3Cl)n2)CC1 | inactive: -0.5%
48 | Cc1onc(-c2ccccc2)c1CNS(=O)(=O)c1ccccc1[N+](=O)[O-] | inconclusive: -65.4%
49 | COc1ccc(C(CCNCc2ccc(OC)c(OC)c2)c2ccc(F)cc2)cc1 (stereo not given) | inconclusive: -6.5%
50 | COc1cc2c(cc1OC)[C@@H](NC(=O)C(C)C)[C@H](OCc1ccccc1)C2 | inactive: -4.1%
51 | O=C1CCc2cccc(O)c2N1 | inactive: -1.1%
52 | CCOc1ccccc1NC(=O)CSc1n[nH]c(=O)n1-c1ccccc1 | inconclusive: -34.4%
53 | CCOC(=O)C1CCN(C(=O)CNC(=O)OC(C)(C)C)CC1 | inconclusive: 8.7%
54 | COc1ccccc1/C=N/NC(=S)NCc1ccco1 | inconclusive: -0.1%
55 | O=C(NCc1ccccc1)c1noc2c1CCCC2 | active: 35.2%
56 | CCCCC(c1nnnn1CCOC)N1CCN(C(=O)c2ccco2)CC1 (stereo not given) | inconclusive: -57.3%
57 | O=C1/C(=C/c2ccco2)SC(=S)N1CC1CCCO1 (stereo not given) | inconclusive: -10%
58 | COc1cc2c(cc1OC)-c1cc(Nc3cccc(C)c3)nc(=O)n1CC2 | inactive: -5.4%
59 | Cc1cc(C(=O)CS(=O)(=O)c2ccc(F)cc2)cc(C)c1O | inactive: -5.3%
60 | COc1ccc(Cc2nnc(SCC(=O)c3ccc4c(c3)OCO4)o2)cc1 | inactive: -2%

From PubChem BioAssay AID588497 (NMMLSC, 2011)
